Results: the supplement of paper PMC12009310
Structures can show the parent of a compound that is named as a salt. ± gives the standard deviation of the averaged measurements. The list shows a part of the results. Part of the spread comes from offsets between plates or batches.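 The cells are a mouse kidney inner medullary collecting duct line, silenced either for the ciliary gene Rpgrip1l or with a non-targeting control siRNA.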

Columns and labels:
mIMCD3 [1] = experiment: robust z score of cell number vs plate controls; higher = more cells (less cytotoxic); conditions: 10 µM, 48 h
mIMCD3 [2] = experiment: robust z score of cilia incidence (% cells with single cilium) vs plate controls; higher = more ciliated cells; conditions: 10 µM; 48 h; siRNA: siScr
mIMCD3 [3] = experiment: robust z score of cilia incidence (% cells with single cilium) vs plate controls; higher = more ciliated cells (rescue of cilia loss); conditions: 10 µM; 48 h; siRNA: siRpgrip1l

| Compound | robust z score of cell number (mIMCD3 [1]; siRNA: siRpgrip1l) | robust z score of cell number (mIMCD3 [1]; siRNA: siScr) | robust z score of cilia incidence (mIMCD3 [2]) | robust z score of cilia incidence (mIMCD3 [3]) |
| --- | --- | --- | --- | --- |
| COCCNC(=O)COc1ccc(OCCNC[C@H](O)COc2ccccc2)cc1 [ZD 7114 hydrochloride] | -3.29 ± 2.5 | -2.86 ± 4.7 | -4.2 ± 5.2 | -11.3 ± 4.3 |
| COc1cccc(CCc2ccccc2OCC[C@@H]2C[C@@H](O)CN2C)c1 | -29.5 ± 25 | -34.6 ± 20 | -110 ± 68 | -104 ± 88 |
| O=C(O)c1ccc(-c2ccc3cc(O)c(C45CC6CC(CC(C6)C4)C5)cc3c2)cc1 | -32.6 ± 10 | -142 ± 110 | -67.1 ± 15 | -58.8 ± 7.8 |
| Cc1ccc(/C=C2\CNC/C(=C\c3ccc(C)cc3)C2=O)cc1 | -32.7 ± 10 | -144 ± 110 | -63.2 ± 17 | -58 ± 6 |
| CCC(=O)NC1CCc2cccc(OC)c2C1 (stereo unspecified) | -5.81 ± 3.6 | 0.303 ± 0.015 | -0.329 ± 1.8 | -13.2 ± 1.6 |
| COc1ccc2c(c1OC)C(=O)O[C@@H]2[C@H]1c2c(cc3c(c2OC)OCO3)CCN1C [Noscapine hydrochloride] | -6.75 ± 5.7 | -4.27 ± 1.9 | -13.8 ± 15 | -26.7 ± 12 |
| CCN(CC)CCCCN1c2ccccc2Oc2ccc(Cl)cc21 [10-DEBC hydrochloride] | -32.5 ± 10 | -143 ± 110 | -67 ± 12 | -58.4 ± 8.4 |
| Cn1cc(C2=C(c3cn(CCCSC(=N)N)c4ccccc34)C(=O)NC2=O)c2ccccc21 [Ro 31-8220 mesylate] | -38.9 ± 24 | -54 ± 28 | -22.7 ± 12 | -41 ± 3.6 |
| O=C(/C=C/c1ccc(O)c(O)c1)OCCc1ccccc1 [Caffeic acid phenethyl ester] | -31.8 ± 30 | -14.3 ± 14 | -26.1 ± 17 | -28.2 ± 6.3 |
| O=c1[nH]ccc2c(S(=O)(=O)N3CCCNCC3)cccc12 [HA 1100 hydrochloride] | -3.63 ± 2.1 | 1.31 ± 0.083 | 6.32 ± 3.9 | -4.72 ± 2.4 |
| Cc1nn(-c2ccccc2)c(C)c1C=NN1CCN(Cc2ccccc2)CC1 | 0.885 ± 2.1 | -1.54 ± 2.5 | -12.7 ± 5.5 | -26.8 ± 18 |
| COc1cc2c(cc1O)CC[C@@H]1[C@@H]2CC[C@]2(C)[C@@H](O)CC[C@@H]12 [2-Methoxyestradiol] | -39.3 ± 35 | -39.7 ± 26 | -94.6 ± 54 | -95.5 ± 82 |
| Clc1ccc2nsnc2c1NC1=NCCN1 [Tizanidine hydrochloride] | -36.5 ± 45 | -2.08 ± 3.5 | 1.44 ± 1.1 | -6.09 ± 0.78 |
| CC(=O)O[C@H]1C(=O)[C@@]2(C)[C@H]([C@H](OC(=O)c3ccccc3)[C@]3(O)C[C@H](OC(=O)[C@H](O)[C@@H](NC(=O)c4ccccc4)c4ccccc4)C(C)=C1C3(C)C)[C@]1(OC(C)=O)CO[C@@H]1C[C@@H]2O [Taxol] | -47.8 ± 39 | -18.1 ± 3.8 | -21.5 ± 0.61 | -37.4 ± 7.4 |
| CC(C)[C@H](CO)Nc1nc(Nc2cccc(Cl)c2)c2ncn(C(C)C)c2n1 [Purvalanol A] | -185 ± 210 | -43 ± 9.2 | -13.4 ± 9.6 | -297 ± 230 |
| CCN1CCC[C@H]1CNC(=O)c1cc(S(N)(=O)=O)ccc1OC [(S)-(-)-Sulpiride] | -1.44 ± 0.6 | 0.435 ± 0.96 | 0.267 ± 0.3 | -4.75 ± 1.4 |
| COc1cc2nc(N3CCN(C(=O)c4ccco4)CC3)nc(N)c2cc1OC [Prazosin hydrochloride] | -57.7 ± 37 | -83.8 ± 76 | -4.84 ± 0.12 | -23.3 ± 2.3 |
| NCC(O)(CS(=O)(=O)O)c1ccc(Cl)cc1 (stereo unspecified) [2-Hydroxysaclofen] | 5.47 ± 7.5 | 8.47 ± 5.3 | 2.68 ± 1.6 | -6.41 ± 3.6 |
| CC1(c2ccccc2)OC(C(=O)O)=CC1=O (stereo unspecified) [Acifran] | -2 ± 5.3 | 1.7 ± 1.4 | -1.85 ± 1.5 | -18.4 ± 12 |
| COC(=O)[C@H](NC(=O)c1cc(-c2ccccc2)nc2ccccc12)c1ccccc1 | -34.7 ± 30 | -0.615 ± 0.24 | 5.95 ± 1.4 | -6.36 ± 1.5 |
| N[C@@H](CS(=O)O)C(=O)O [L-Cysteine sulfinic acid] | 8.15 ± 10 | -2.48 ± 2.8 | 0.753 ± 1.8 | -8.38 ± 8 |
| COc1ccc2[nH]c(-c3ccccc3)c(CCNC(C)=O)c2c1 [2-Phenylmelatonin] | -4.87 ± 2.9 | -1.33 ± 2.2 | -0.0153 ± 0.23 | -10.9 ± 2.7 |

| Compound | robust z score of cell number (mIMCD3 [1]; siRNA: siRpgrip1l) | robust z score of cell number (mIMCD3 [1]; siRNA: siScr) | robust z score of cilia incidence (mIMCD3 [2]) | robust z score of cilia incidence (mIMCD3 [3]) |
| --- | --- | --- | --- | --- |
| CCc1c2c(nc3ccc(OC(=O)N4CCC(N5CCCCC5)CC4)cc13)-c1cc3c(c(=O)n1C2)COC(=O)[C@]3(O)CC | -25.2 ± 24 | -12.2 ± 9.7 | -17.6 ± 5.6 | -15 ± 2.6 |
| Oc1c2ccccc2c2c3c(cccc13)N=N2 | -147 ± 160 | -35 ± 8 | -19.1 ± 4.2 | -304 ± 170 |
| CN(C)CCC=C1c2ccccc2COc2ccccc21 [Doxepin hydrochloride] | 2.74 ± 5 | -1.03 ± 2.5 | -0.729 ± 4.2 | -9.15 ± 5 |
| CNCCCCOc1ccccc1Cc1ccccc1 [Bifemelane hydrochloride] | -36.2 ± 12 | -24.2 ± 3.9 | -31.5 ± 9.2 | -35 ± 1.4 |
| O=C(NCC1CCCCN1)c1cc(OCC(F)(F)F)ccc1OCC(F)(F)F (stereo unspecified) [Flecainide acetate] | -22.4 ± 29 | -1.72 ± 3.9 | 0.503 ± 1.2 | -163 ± 160 |
| Brc1c(NC2=NCCN2)ccc2nccnc12 [UK 14,304 tartrate] | -3.18 ± 4.2 | -1.43 ± 0.64 | 2.38 ± 1 | -7.45 ± 4.4 |
| OC(CNCC(O)C1CCc2cc(F)ccc2O1)C1CCc2cc(F)ccc2O1 (stereo unspecified) [Nebivolol hydrochloride] | -31.7 ± 30 | -14.6 ± 13 | -29.4 ± 21 | -30 ± 6.5 |
| CN(C)c1ccc(/C=C2/C(=O)Nc3ccccc32)cc1 | -76.7 ± 90 | -10.8 ± 6.7 | -2.26 ± 0.48 | -242 ± 180 |
| CCOc1cc(C(=O)Nc2ccc(Cl)c(-c3nc4ccccc4[nH]3)c2)cc(OCC)c1OCC | -19 ± 18 | -9.08 ± 7.3 | -4.4 ± 1.2 | -11.6 ± 3.3 |
| Nc1ccc(-c2cccc3c(=O)cc(N4CCOCC4)oc23)cc1 | -13.8 ± 13 | -7.39 ± 2.8 | -7.07 ± 1.3 | -11.2 ± 4.9 |
| CCCCC1CCC(c2nc(-c3ccncc3)no2)CC1 (stereo unspecified) | -16.4 ± 17 | -6.85 ± 2.3 | -7.82 ± 6.8 | -9.59 ± 5 |
| O=C(O)c1cc(=O)c2ccccc2[nH]1 [Kynurenic acid] | 6.69 ± 6.4 | 2.18 ± 6.4 | 0.608 ± 1.6 | -5.69 ± 6 |
| COc1cc(NC(=O)c2ccccn2)ccc1Cl | -6.53 ± 0.43 | -9.2 ± 6 | 5.48 ± 1.4 | -11.9 ± 6 |
| Clc1ccc(CCCOCCCN2CCCCC2)cc1 | -61.1 ± 53 | -51.5 ± 1.2 | -79.7 ± 19 | -43.76 ± 0.33 |
| O=C1C(=O)N(Cc2ccc(Cl)c(Cl)c2)c2ccccc21 [Apoptosis Activator 2] | -37.8 ± 24 | -52.4 ± 29 | -29 ± 12 | -51.7 ± 9.6 |
| CC(C)(C)[N+]([O-])=Cc1ccc(S(=O)(=O)O)cc1S(=O)(=O)O | 0.0862 ± 5.3 | -0.524 ± 3.1 | -1.49 ± 0.79 | -4.51 ± 2.6 |
| CC(Oc1ccc(O)cc1)(P(=O)(O)O)P(=O)(O)O | -2.34 ± 1.4 | -5.3 ± 1.5 | 0.105 ± 2.8 | -12.1 ± 3.3 |
| O=C(O)COc1cccc(-c2ocnc2-c2nc(-c3ccccc3)c(-c3ccccc3)o2)c1 | -179 ± 200 | -41.6 ± 9.6 | -5.92 ± 4.2 | -231 ± 140 |
| C=C[C@@]1(C)CC(=O)[C@]2(O)[C@@]3(C)[C@@H](O)CCC(C)(C)[C@@H]3[C@H](O)[C@H](OC(C)=O)[C@@]2(C)O1 [Forskolin] | -22.9 ± 16 | -8.86 ± 1.6 | -2.36 ± 0.92 | -13.4 ± 1.2 |
| C[C@@H](CN1CCC(n2c(=O)[nH]c3cc(Cl)ccc32)CC1)NC(=O)c1ccc2ccccc2c1 | -2.98 ± 1.3 | -0.8 ± 1.4 | -0.0543 ± 0.63 | -4.77 ± 1.3 |
| CC1(COc2ccc(CC3SC(=O)NC3=O)cc2)CCCCC1 (stereo unspecified) [Ciglitazone] | -303 ± 220 | -40.4 ± 9.6 | -54.9 ± 12 | -33 ± 9.5 |
| c1cnc(N2CCN(Cc3ccc4c(c3)OCO4)CC2)nc1 [Piribedil] | -14.2 ± 16 | -0.339 ± 0.74 | 0.347 ± 3 | -15.4 ± 1.1 |

Gathered by group, the entries above with fluorine

| Compound | robust z score of cell number (mIMCD3 [1]; siRNA: siRpgrip1l) | robust z score of cell number (mIMCD3 [1]; siRNA: siScr) | robust z score of cilia incidence (mIMCD3 [2]) | robust z score of cilia incidence (mIMCD3 [3]) |
| --- | --- | --- | --- | --- |
| O=C(NCC1CCCCN1)c1cc(OCC(F)(F)F)ccc1OCC(F)(F)F (stereo unspecified) [Flecainide acetate] | -22.4 ± 29 | -1.72 ± 3.9 | 0.503 ± 1.2 | -163 ± 160 |
| OC(CNCC(O)C1CCc2cc(F)ccc2O1)C1CCc2cc(F)ccc2O1 (stereo unspecified) [Nebivolol hydrochloride] | -31.7 ± 30 | -14.6 ± 13 | -29.4 ± 21 | -30 ± 6.5 |
